The values below come from PubChem BioAssay AID1347423 (Functional Genomics Laboratory (NCATS/FGL), 2020).

In all, about 52,000 sequences went through this assay and about 210 (0.4%) were called active.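 How the source made its calls: active means gene whose silencing raises cell survival under the drug, median off-target-corrected z-score across its silencing RNAs 2 or more; inactive means the rest.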 The list shows a part of the results.

A short description of this test: Resistance to Poly (ADP-Ribose) Polymerase inhibitor: Gene Identification via Genome-wide siRNA Screen. Particulars: mouse BRCA2 R2336H ES cells, olaparib, CellTiter-Glo viability; hits give high values. The procedure, abridged:
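Genome-wide siRNA screen (3 siRNAs/gene, 20 nM) in mouse ES cells carrying hypomorphic BRCA2 R2336H; olaparib 500 nM added 48 h post-transfection, CellTiter-Glo viability 72 h later. Normalized to plate-median negative control; MAD z-scores, gene median, seed-adjusted.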
On to CCAAGCAACACCACUCAUCTT against Centb2, for which the z-score was inactive: -0.144. Then GGACUUGUUAUGGCCAUGCTT against Olfr1389, with inactive: 1.11. Regarding GGAGGAAGACAUUGUGUGUTT against Tnfrsf11b, the z-score is inactive: -1.3. Under GGAGGAAUCUCCAGAAGGUTT against Centg2 stands inactive: -0.482. Under GGAAAAACCAAGGUAGAGGTT against Prkcabp stands inactive: 0.734. Then “GGGUAAUAGGCACAGACCATT against 2410146L05Rik”, with inactive: -1.3. For the sequence “CGUGGUUGAACUUUGUCCGTT against 1110035L05Rik”, the z-score was inactive: 0.32. As to “GCUACAAGCUUUUUCAAUUTT against 6530402A20”, the z-score is inactive: 1.23. Under CCUACCCUAACCAUUACACTT against Enpp5 stands inactive: 0.0656; under “GCGAUACUCCUAAAACAUATT against D330012D11Rik”, inactive: -0.211.

As to GGAAUUUGGAGCCGACUGCTT against Mdk, the z-score was inactive: 0.519. Under GGUUUAUAUCCGUACACCUTT against Sp2 stands inactive: -0.544; under GGACUUUGAUAUCAAAGAGTT against Serpina10, inactive: -0.146. Under GGAAACACAAGUUCUAGGUTT against Gpx3 stands inactive: 0.42; under “GGAAGUGUCUGCCAGAGAUTT against 2210402C18Rik”, inactive: 0.453; under GGGAAAUGUGUGUUAUCUGTT against Rnf126, inactive: 1.17. Under “CCUACAGAGGUGCCAUUGUTT against 1200013P24Rik” stands inactive: -3.28; under CCUCUUAAAACUAAAUCUGTT against Skiip, inactive: 0.39; under GGCACAAGACAGUUUGGCATT against Rnf127, inactive: -1.07. Regarding “CCAUUUUGAAGCAUAGUACTT against 5730469D23Rik”, the z-score is inactive: 0.118.

As to GGCUCUAGGAUUCAAAUAUTT against Grid1, the z-score is inactive: -1.23.

Take “GGCAACUAACAGGAAAAAGTT against 4430402I18Rik”: the z-score is inactive: 0.179. For GGACAUGAUCAAUGAAGUATT against Calm2, the z-score was inactive: -0.334. On to GCCCUAAAUCCUUUUAUUATT against Trpc7, for which the z-score is inactive: 1.18. Under GGCCAUUUUAAAUGGGUCATT against Stx16 stands inactive: 1.41; under GGUGCUUUGUAAACUGUCUTT against Slc26a11, inactive: -2.11. Under GGUGCUAAGCUAGACAUUCTT against Mib1 stands inactive: -0.815. Under GGAUGCAGUUCAUGACAAUTT against Ythdf1 stands inactive: 2.35; under GCUGUUUCCUGAACAAUUCTT against Tram1, inactive: -1.1; under GACCUACCAGAACAUCACUTT against BC012278, inactive: 0.0962. Consider GGCAGACAUUGCAUUUCUCTT against Coch, for which the z-score was inactive: -0.6. Under GGAGUUAGAAACUCAUUUUTT against Ppargc1b stands inactive: 0.729; under CCAAGCAUUAUGAGAUGCUTT against Sec23b, inactive: 0.988. Under CCAUCUACCAUAAACUGUATT against Spata6 stands inactive: 1.76.

As to GCCAUGCAUCUGGAUUUACTT against Nat1, the z-score is inactive: -0.0728. Under GCUGUAUUGAAGGUCCCUUTT against Olfr744 stands inactive: -2.34. On to GGUAGCUGAAGAUGGAGAGTT against Abcc10, for which the z-score is inactive: -0.722.

In the case of “GGACAUUUUUGGGAAAGAUTT against 2310042P20Rik”, the z-score was inactive: -1.4.

As to “GGAGUCCACUAUGAGUACGTT against B230114P05Rik”, the z-score is inactive: 0.752. In the case of “CGUGGAAUCCAGACACUUGTT against 2210006M16Rik”, the z-score is inactive: -1.29. Under GCUUCUAUUGCCAACAUUGTT against Tcp1 stands inactive: -3.3; under CCCGGGUUGGGUGUACAUUTT against Sds, inactive: -0.65; under CCAGUUGACAGGUUUGAUCTT against Habp4, inactive: -0.167.

With GGUCUUCCUGUCUGAAAUATT against Dock7, the z-score was inactive: -2.02. Then GGAGUUCUUUUAUGAUAUCTT against Rph3a, with inactive: 0.266; and “GGAAGGAUUGCCUUUAGGATT against C430048L16Rik”, with inactive: 0.111; and GCUUUGUCAAUAAGCCCACTT against Shc1, with inactive: 0.367. Then GGAGAUUCGAAGCCUUACUTT against Irak4, with inactive: -0.172.

As for GGACAUCAAGUUCUUGCCATT against Hspa5, the z-score is inactive: 2.27.

Consider GGCACUUGAAUUUCUAAGUTT against Cbx5, for which the z-score is inactive: 1.18. Under GCAGGAACACUGGUUUGAATT against DXImx46e stands inactive: -1.71; under “GGACUUUAGUGACAGCUAUTT against 4930563D23Rik”, inactive: -1.06.

For the sequence GGAGAAGAGGACAGAAGCCTT against Akt1s1, the z-score is inactive: -0.0445. Turning to GGAGAGAAAAAAGUCUCUCTT against Olfr66, the z-score was inactive: 1.12. Take “GGAGUUCAUGCAAGUCCGATT against 2900055D14Rik”: the z-score is inactive: -0.119. Turning to “CGAUCCAGACUUUGUCCCUTT against 2610524A10Rik”, the z-score is inactive: -0.488. Then “GGAGAAGAACGAGAAACGUTT against 9430031J16Rik”, with inactive: -0.94. With GGAGCAGUCUCCUUUUUGUTT against Pcnp, the z-score was inactive: -1.17.

On to GGUCAGAGUACAGCUCCGUTT against Mcpt7, for which the z-score was inactive: -1.55. On to “GCACCAAUACAUUUGGACCTT against 5830411E10Rik”, for which the z-score was inactive: 0.654.

Turning to CCGGCUAAGAAAGACAAUUTT against Dnclic1, the z-score is inactive: 0.976. Then GGCUUAUUCCCUAAUUAAATT against LOC217066, with inactive: 0.974; and CCAUCUUGAGUGAUAAGAATT against Siat4c, with inactive: -0.232; and GGUACGAAGAAGACAAAAATT against Tnfsf9, with inactive: 0.469.

Turning to GCUAAUAUGCCACUGCCCGTT against Pls3, the z-score is inactive: 0.0497. Then “GAUGCCCAAUGUGCAAAUGTT against Defcr-rs12”, with inactive: 0.0188; and GGUGCAUGAAGAGUUAAAATT against Phf17, with inactive: 0.0649; and CCAUCCUGCUGUUUGCAUCTT against AB124611, with inactive: 1.39. Then GGAGAAGUCCAUACGGAUCTT against Gpr18, with inactive: 0.202; and “GGACAUUGCUGUAUUUAUCTT against 2610027L16Rik”, with inactive: -0.256; and GGCGCAUUCCUCUGUAGAATT against Ddc, with inactive: -1.04. Take “GCUUAGAAUCUCUGGACAATT against 3110001H15Rik”: the z-score is inactive: -2.82.

For the sequence “GGACGAUCUAGCAUUCAUGTT against D430038H04Rik”, the z-score was inactive: -1.08. Under “GCUUAGUGACCAUCUCCGUTT against E130012A19Rik” stands inactive: 0.564; under GGGCAUUGUUGAGCACCUUTT against Tmem8, inactive: -1.52; under UUUCCUGGAACUCGACAGGTT against Wdr34, inactive: 1.88. Then CGAGGCUGAAAGAUUGUAUTT against ORF5, with inactive: -0.694; and GGUGGAGACCCUGAUAAGUTT against Harp, with inactive: -0.245; and GCCCUCGGACUGAAAACAATT against Chrm5, with inactive: 0.861. For the sequence CCAAUCGGAAAUUUUACUGTT against Sh3yl1, the z-score is inactive: -0.233. Under “GGACUUAAGAAAGAUGUGUTT against A130010J15Rik” stands inactive: 0.386; under GGUGCUUCGUUUAUUACCATT against Lig3, inactive: -1.29. In the case of GGAACAAACCAAGUUCACATT against Kcnip2, the z-score is inactive: -1.08. Under CUACACGUAAGGAUGUAUCTT against Faim3 stands inactive: 0.533. In the case of CGAUACGCUACUGCAGGUGTT against H1fx, the z-score is inactive: 0.768. Then CCCUAGGUCAUAGCUUGACTT against AI413414, with inactive: -0.0745; and GGUAGAAAGUAUGGCUCCATT against Ppp1r9a, with inactive: 0.254. Under “GGAAAUAAGCAGCGCAUGCTT against 1810043M15Rik” stands inactive: 3.37; under “CCUCAUAGGAGAAUCUCCCTT against 2310076L09Rik”, inactive: 1.68. Then GGUUGGUCCUGAUGAAGAATT against Tnnt2, with inactive: -0.129.

As for GGAAAAGAGUGAUUUCCUATT against Csdufd1, the z-score was inactive: 0.804. Under GGCUUGGAAUGACACUACUTT against Maged1 stands inactive: 1.15. Under GGAGAUGAUCGACGAAGUATT against Tnnc1 stands inactive: 1.49; under CGUCUACUUAUCAAUAUGATT against Rbm5, inactive: 1.4.

As for CCGGAAUCAAAACCUCUAGTT against BC021611, the z-score is inactive: 0.0833. Then GCAAGUUGUCCUCACCUGUTT against Mynn, with inactive: 0.82. Take “GCCAGACUGAGCUACAAAATT against 1700049E17Rik”: the z-score was inactive: -1.64.

On to “CUGCAAACAGAGAGCAGCGTT against 1200009F10Rik”, for which the z-score was inactive: 2.23. Under CCUACAAAACCCUCAUGCUTT against Trik stands inactive: -0.316; under GGUUGACCUGUGCUUUUCGTT against Arr3, inactive: 0.325. Under GGAUCAGGAAGUAAACUUCTT against S100a6 stands inactive: -0.232; under GAAGACGAACUCUACCAGGTT against Folr4, inactive: 0.447. Under GGUCAAUUUUAGAGAGAUCTT against Tceb1 stands inactive: -0.328.
